Screen size: about 320,000 compounds; about 2,100 (0.66%) were called active. The inconclusive results got no clear call from the source; some entries with a clear call stand among them for comparison. The call rests on the fitted dose curve; in most records, active means well fitted inhibition curve with a large enough effect in the signal ratio, with a control signal flat (not every such curve was filed as active); inconclusive means small, poorly fitted or top-dose-only effect, or effect the other way, or a change in a side signal; inactive means flat fitted curve, though single readings scatter; the % refers to the signal ratio. Where the call is inconclusive, the potency comes from a doubtful curve fit.
test: qHTS Assay for Lipid Storage Modulators in Drosophila S3 Cells; conditions: BODIPY lipid droplet fluorescence, 18-24 h, cells fed with added oleic acid; lipid storage change, negative = inhibition: at 46.1 µM (top of the series) unless noted
Procedure, shortened: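 Drosophila S3 cells got compounds at several concentrations plus oleic acid (400 uM solution). Laser-scanning cytometry with 488 nm excitation read lipid droplets at 500-530 nm and cells at 575-640 nm. Percent activity was relative to 20 uM Triacsin C.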
On the % scale 0 is the no-effect control and ±100 the full control effect; potency means the concentration at half of the fitted maximal effect.

Lipid storage change, negative = inhibition, inactive:
CN(Cc1ccccc1)C(=O)COc1ccccc1Cl
COc1ccc(C(=O)NNC(=O)COc2ccc(Cl)cc2)c(OC)c1

Lipid storage change, negative = inhibition, inconclusive:
COC(=O)c1ccccc1NC(=O)CSc1nnc(-c2ccoc2C)n1C -19.4%
O=C(O)CCc1nnc(SCC(=O)Nc2ccc(Cl)c(C(F)(F)F)c2)[nH]c1=O -22%
CN1CCC(N(C)CC(C)(C)NS(=O)(=O)c2ccccc2)CC1 15.5%
COC(=O)C1CCN(Cc2nnc(-c3ccccc3)o2)CC1 44.5%
Cn1c(=O)c2[nH]c(Nc3ccccc3)nc2n(C)c1=O -10.3%
N#CCCn1c(SCC(=O)Nc2ccc(N3CCOCC3)cc2)nc2ccccc21 26.9%
COc1cc(C2C(C(=O)Nc3ccc(F)cc3)=C(C)Nc3nc(CCCO)nn32)cc(OC)c1OC (stereo not given) 2.9%
COc1ccc(S(=O)(=O)N2CCC(C(=O)NC3CCCC3)CC2)cc1OC 23.1%
C=CCn1c(SCc2nc3scc(-c4ccccc4)c3c(=O)[nH]2)nnc1-c1ccccc1F -27.7%
Cc1nc(-c2ccccc2)sc1C1(C)CC(c2ccc(OC(F)(F)F)cc2)=NO1 (stereo not given) 21.8%
CCCN(C(=O)Cc1coc2cc(C)c(C)cc12)c1c(N)n(Cc2ccccc2)c(=O)[nH]c1=O
CCN(C(=O)COC(=O)c1[nH]c(C)c(C(C)=O)c1C)C1CCS(=O)(=O)C1 (stereo not given) 6.74%
CN(c1ccccc1)S(=O)(=O)c1ccc(Cl)c(C(=O)NCCc2c[nH]c3ccccc23)c1 -20.3%
Cc1cccc(/C(N)=N/OC(=O)Cc2cccc3ccccc23)c1 -4.45%
COc1cccc(NC(=S)NCc2ccc3c(c2)cc(C)n3C)c1 30.5%
N#CCSc1nc2cc(C(=O)N3CCC(C(N)=O)CC3)ccc2c2nc3ccccc3n12 25.8%
CC(OC(=O)c1ccc(C#N)cc1)C(=O)Nc1ccc(Cl)cn1 (stereo not given) -42.9%
Cc1cc(C)n(-c2nc(Nc3ccccc3)nc(-n3nc(C)cc3C)n2)n1 -17.4%
CN(C(=O)CSc1ncccc1C(=O)O)c1ccccc1 -28.7%
CCOC(=O)C1=C(c2ccccc2)NC(=O)NC1c1cc(Br)c(O)c(OC)c1 (stereo not given) 10.1%
O=C(CNC(=O)c1ccccc1F)N/N=C/c1cc(Br)ccc1OC(=O)/C=C/c1ccco1 143%
CN(Cc1cccs1)C(=O)C1CC(=O)N(Cc2ccccc2)C1 (stereo not given)
O=C(O)c1cc(-c2ccc(Cl)cc2)n(-c2ccc(Cl)cc2)n1 -32%
O=C(N/N=C/c1ccncc1)c1ccc(NC(=O)c2ccc(Cl)cc2)cc1 2.28%
COc1ccc(-c2cc(-c3n[nH]c(=S)n3-c3cc(OC)ccc3OC)[nH]n2)cc1 -8.91%
Clc1ccc(CN2C3=NCCCN3c3ccccc32)cc1 -31.8%
COc1ccc(C(=O)Nc2ccc3c(c2)nc(CCNC(=O)c2ccco2)n3C)cc1 8.9%
CCCNC(=O)C(C)n1c2ccccc2c2nc(=O)cc(C)n21 (stereo not given) 11.6%
CN(C)CCCn1c2c(c(SCC(=O)Nc3nccs3)nc1=O)CCC2 3.46%
CCOc1ncnc2c1oc1nc(CC(C)C)c3c(c12)CC(C)(C)OC3 -15%
COc1ccc(N(CC(=O)N/N=C/c2ccc(N(C)C)cc2)S(=O)(=O)c2ccccc2)cc1 59.7%
CC(=O)NCC(=O)NC1CCCc2c1cnn2-c1ccccc1F (stereo not given) 27.2%
Cc1ccc(NC(=O)C(C)N2CCc3ccccc3C2)cc1 (stereo not given) -135%
C=CCc1cc(C)ccc1OCCCC(C(=O)OCC)C(=O)OCC 1.92%
Cc1cccc(NC(=O)[C@@H]2CCCN2C2=NS(=O)(=O)c3ccccc32)c1C -1.22%
CCOc1ccc(C(=O)OCC(=O)NCc2ccccc2)cc1OCC -13.5%
CCC(Sc1nc(C)cc(C)n1)C(=O)NC1=NN=C(c2ccc(C)cc2)CS1 (stereo not given) -4.33%
COc1ccc(Cc2nc3ccc(C(=O)N4CCN(C)C(C)C4)cc3o2)cc1OC (stereo not given) 78.2%

Potency, inconclusive:
CCOC(=O)Cn1c(-c2ccccc2)ccc(C#N)c1=O 29100 nM [falling, single point]
COc1ccc(OC)c(/C=C/C(=O)OCC(=O)Nc2cccc(C(C)=O)c2)c1 4110 nM [activator, partial curve]
O=[N+]([O-])c1ccc(NCCCN2CCOCC2)c(Cl)c1 92 nM [falling, full curve, poor fit]
CCN(CC)C(=O)Cc1c(O)c2ccccc2[nH]c1=O 18.4 nM [falling, full curve, poor fit]
O=[N+]([O-])c1ccc(S(=O)(=O)NCCS(=O)(=O)N2CCN(c3ccccc3)CC2)cc1 29100 nM [falling, single point]
CC(C(=O)Nc1ccccn1)c1ccccc1 (stereo not given) 10300 nM [activator, partial curve]
CCOC(=O)Cn1c(=O)c(F)cn(Cc2ccc(OC)c([N+](=O)[O-])c2)c1=O 651 nM [activator, full curve]
Cc1ccc(C)c(N(C(=O)CNC(=O)c2ccco2)C(C(=O)NC2CCCCC2)c2cccnc2)c1 (stereo not given) 1160 nM [falling, single point]
COc1ccc(OC)c(NC(=O)C2C3CCC(C3=C(C)C)C2C(=O)O)c1 (stereo not given) 9200 nM [rising, partial curve]
Cc1ccccc1C(=O)N1CCN(c2ccc(NC(=S)NC(=O)c3ccco3)cc2)CC1 1460 nM [falling, full curve, poor fit]

Random excerpt: 2 records from the list
Potency, inconclusive:
Cc1ccc(C)c(N(C(=O)CNC(=O)c2ccco2)C(C(=O)NC2CCCCC2)c2cccnc2)c1 (stereo not given) 1160 nM [falling, single point]
O=[N+]([O-])c1ccc(S(=O)(=O)NCCS(=O)(=O)N2CCN(c3ccccc3)CC2)cc1 29100 nM [falling, single point]
